Measurements reported in PubChem BioAssay AID504804 (Drosophila RNAi Screening Center, 2011).
In all, the deposit lists about 19,000 reagents; this is an unselected part of those that have a named target and a result. Of all reagents, 47 (0.25%) are marked active. 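Signals are raw, not normalised; exact z-scores behind calls not deposited; actives needed confirmation, so some wells reaching 2 SD are inactive.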 Unmarked entries are inactive. A plus sign joins genes that one reagent is predicted to hit. No sequences are given here.

Assay: 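Fly genes whose loss lessens doxorubicin-driven cell death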 (primary screen)
Cell system: Drosophila Kc cells
Reagents: long dsRNA against Drosophila genes, 0.5 µg dsRNA per well
Timing: 96 h (48 h knock-down, then 48 h drug)
Challenge: doxorubicin 5 µg/ml for 48 h, added 48 h after dsRNA
Read-out: 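Viability measured as cellular ATP by luminescence after 48 h knock-down then 48 h doxorubicin at 5 µg/ml; unnormalised plate counts for each replicate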
Reading the numbers: raw ATP luminescence: higher = more viable cells, protection from doxorubicin
Rule for the call: 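z-score of 2 or more over plate mean in both duplicates, retained only when retests and separate dsRNAs confirm the protection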

| SD above plate mean | raw ATP luminescence, replicate 1 | raw ATP luminescence, replicate 2 | Gene | DRSC id |
| --- | --- | --- | --- | --- |
| – | 1.19e5 | 73247 | CG11349 | DRSC08179 |
| – | 3.61e5 | 3.11e5 | sbm (sobremesa) | DRSC20185 |
| – | 2.92e5 | 2.97e5 | Drak (Death-associated protein kinase related) | DRSC19778 |
| – | 45080 | 46573 | beat-Va (beaten path Va) | DRSC14192 |
| – | 1.02e5 | 87050 | CG10602 | DRSC02075 |
| – | 69993 | 53773 | lncRNA:CR42862 + CG33229 | DRSC08497 |
| – | 43137 | 38987 | Eig71Ed (Ecdysone-induced gene 71Ed) | DRSC11151 |
| – | 35890 | 1.04e5 | CG12134 | DRSC06109 |
| – | 2.44e5 | 2.68e5 | Sfp26Ad (Seminal fluid protein 26Ad) | DRSC00904 |
| – | 65810 | 76350 | CG6000 | DRSC15938 |
| – | 56080 | 60537 | CG30431 | DRSC04902 |
| – | 69660 | 80030 | CG30431 | DRSC04904 |
| – | 75483 | 78360 | GstE13 (Glutathione S transferase E13) | DRSC06083 |
| – | 58337 | 67533 | CG6163 | DRSC10595 |
| – | 71983 | 65153 | CG6951 | DRSC10755 |
| – | 47913 | 53050 | zip (zipper) | DRSC04725 |
| – | 37220 | 22673 | CG6689 | DRSC16095 |
| – | 68277 | 65203 | shu (shutdown) | DRSC04484 |
| – | 72903 | 64643 | eEF1delta (eukaryotic translation elongation factor 1 delta) | DRSC02790 |
| – | 92290 | 57200 | CG14841 | DRSC14965 |
| – | 82680 | 82947 | CG12523 | DRSC09895 |
| – | 1.07e5 | 72023 | Pka-C1 (Protein kinase, cAMP-dependent, catalytic subunit 1) | DRSC03399 |
| – | 2.65e5 | 2.72e5 | CG32814 | DRSC17670 |
| – | 28783 | 28010 | KFase (Kynurenine formamidase) | DRSC03258 |
| – | 73350 | 61623 | side-VI (sidestep VI) | DRSC12828 |
| – | 69903 | 43533 | side-VI (sidestep VI) | DRSC12830 |
| – | 45900 | 52893 | side-VI (sidestep VI) | DRSC14920 |
| – | 36197 | 37377 | side-VI (sidestep VI) | DRSC15624 |
| – | 63950 | 61660 | CG17770 + Acam | DRSC14110 |
| – | 69440 | 59930 | CG17770 + Acam | DRSC15264 |
| – | 71597 | 79247 | CG4935 | DRSC01924 |
| – | 52173 | 57080 | CG3819 | DRSC10378 |
| – | 62770 | 57227 | CG31391 | DRSC16047 |
| – | 29897 | 56797 | Gr77a (Gustatory receptor 77a) | DRSC11446 |
| – | 26923 | 30953 | sip2 (septin interacting protein 2) | DRSC03154 |
| – | 3.48e5 | 2.93e5 | CG11085 | DRSC19374 |
| – | 1.80e5 | 2.01e5 | CG15115 | DRSC06537 |
| – | 1.01e5 | 80320 | CG11267 | DRSC09833 |
| – | 57827 | 51453 | CG10912 | DRSC06009 |
| – | 34590 | 49153 | Nup160 (Nucleoporin 160kD) | DRSC02774 |
| – | 42010 | 42930 | CG32750 | DRSC18848 |
| – | 1.27e5 | 1.46e5 | dar1 (dendritic arbor reduction 1) | DRSC08049 |
| – | 43317 | 46280 | KP78a + KP78b | DRSC16721 |
| – | 56300 | 49757 | KP78a + KP78b | DRSC16722 |
| – | 1.73e5 | 1.75e5 | Prm (Paramyosin) | DRSC08941 |
| – | 1.79e5 | 1.61e5 | Prm (Paramyosin) | DRSC08942 |
| – | 33003 | 39907 | Prm (Paramyosin) | DRSC11255 |
| – | 2.24e5 | 2.00e5 | CG31068 | DRSC13820 |
| – | 62453 | 55203 | phu (phurba tashi) | DRSC16390 |
| – | 61300 | 58370 | CG7140 | DRSC11799 |
| – | 3.17e5 | 2.72e5 | DNAlig4 (DNA ligase 4) | DRSC19436 |
| – | 85930 | 90207 | Oli (Olig family) | DRSC02866 |
| – | 57563 | 77477 | Slc25A46b | DRSC02888 |
| – | 57090 | 46850 | Ets96B | DRSC16127 |
| – | 50960 | 61270 | CG10877 | DRSC14274 |
| – | 31550 | 42540 | CecB (Cecropin B) | DRSC16605 |
| – | 53520 | 51640 | CG15468 | DRSC18051 |
| – | 37160 | 44120 | Pcp (Pupal cuticle protein) | DRSC03395 |
| – | 83250 | 57890 | CG14132 | DRSC10136 |
| – | 60503 | 57450 | CG12935 | DRSC06248 |
| – | 47473 | 46573 | ctrip (circadian trip) | DRSC12242 |
| – | 38910 | 34317 | ctrip (circadian trip) | DRSC12287 |
| – | 43857 | 27183 | CG6276 | DRSC16007 |
| – | 60850 | 52610 | Orco (Odorant receptor co-receptor) | DRSC12358 |
| – | 65790 | 65260 | CG15170 | DRSC02471 |
| – | 2.09e5 | 1.53e5 | Sp1 | DRSC17622 |
| – | 3.19e5 | 2.79e5 | Sp1 | DRSC18717 |
| – | 3.37e5 | 3.64e5 | CG42249 | DRSC19383 |
| – | 3.29e5 | 3.05e5 | CG42249 | DRSC19826 |
| – | 1.95e5 | 2.16e5 | l(2)41Ab (lethal (2) 41Ab) | DRSC21007 |
| – | 83940 | 70070 | CG14840 | DRSC14964 |
| – | 2.02e5 | 2.42e5 | CR40354 (pseudo) | DRSC20923 |
| – | 68837 | 50313 | stck (steamer duck) | DRSC17070 |
| – | 77887 | 62223 | atk (artichoke) | DRSC11418 |
| – | 61900 | 57863 | atk (artichoke) | DRSC11769 |
| – | 58650 | 78650 | Fbxl7 (F-box and leucine-rich repeat protein 7) | DRSC15553 |
| – | 21177 | 19947 | ICA69 (Islet cell autoantigen 69 kDa) | DRSC11621 |
| – | 79723 | 80840 | Tap42 (Two A-associated protein of 42kDa) | DRSC02967 |
| – | 62107 | 72793 | nht (no hitter) | DRSC01976 |
| – | 36517 | 47087 | msps (mini spindles) | DRSC17004 |
| at least 3 SD above plate mean | 1.14e5 | 1.03e5 | Arc1 (Activity-regulated cytoskeleton associated protein 1) | DRSC06159 |
| – | 59840 | 73190 | ng3 (new glue 3) | DRSC18804 |
| – | 73197 | 85303 | CG10063 | DRSC09688 |
| – | 3.31e5 | 2.69e5 | Shawn + Tyler | DRSC19565 |
| – | 66397 | 69980 | CG34168 | DRSC01938 |
| – | 70260 | 61913 | CG6071 | DRSC10579 |
| – | 53447 | 40787 | Prosalpha5 (Proteasome alpha5 subunit) | DRSC07514 |
| – | 90250 | 1.04e5 | CR31700 (pseudo) | DRSC03682 |
| – | 3.50e5 | 3.75e5 | CG12986 | DRSC19506 |
| – | 3.71e5 | 3.28e5 | CG8945 | DRSC20129 |
| – | 3.16e5 | 3.08e5 | CG8945 | DRSC20130 |
| – | 65167 | 56617 | Vps36 (Vacuolar protein sorting 36) | DRSC09785 |
| – | 60140 | 68700 | Clbn (Caliban) | DRSC14404 |
| – | 56367 | 35697 | CG18542 + CG32939 | DRSC15342 |
| – | 51940 | 67723 | CG11125 | DRSC06042 |
| – | 23933 | 30490 | CG6055 | DRSC02923 |
| – | 77710 | 61487 | CG30269 | DRSC04158 |
| – | 2.02e5 | 2.26e5 | CG13725 | DRSC10054 |
| – | 2.96e5 | 2.97e5 | CG15458 | DRSC20529 |
| – | 63990 | 59353 | CG7551 | DRSC10876 |
| – | 65470 | 74806 | abd-A (abdominal A) | DRSC13179 |
| – | 14780 | 15580 | abd-A (abdominal A) | DRSC16897 |
| – | 69537 | 51363 | botv | DRSC05949 |
| – | 1.18e5 | 62790 | CG12360 (retired record) | DRSC14505 |
| – | 66080 | 84840 | CG14370 | DRSC14832 |
| – | 68650 | 51320 | BuGZ (Bub3 interacting GLEBS and Zinc finger domain protein) | DRSC02642 |
| – | 41460 | 60680 | BuGZ (Bub3 interacting GLEBS and Zinc finger domain protein) | DRSC02643 |

12 neighbouring reagents from above, quoted:
| SD above plate mean | raw ATP luminescence, replicate 1 | raw ATP luminescence, replicate 2 | Gene | DRSC id |
| --- | --- | --- | --- | --- |
| – | 69903 | 43533 | side-VI (sidestep VI) | DRSC12830 |
| – | 45900 | 52893 | side-VI (sidestep VI) | DRSC14920 |
| – | 36197 | 37377 | side-VI (sidestep VI) | DRSC15624 |
| – | 63950 | 61660 | CG17770 + Acam | DRSC14110 |
| – | 69440 | 59930 | CG17770 + Acam | DRSC15264 |
| – | 71597 | 79247 | CG4935 | DRSC01924 |
| – | 52173 | 57080 | CG3819 | DRSC10378 |
| – | 62770 | 57227 | CG31391 | DRSC16047 |
| – | 29897 | 56797 | Gr77a (Gustatory receptor 77a) | DRSC11446 |
| – | 26923 | 30953 | sip2 (septin interacting protein 2) | DRSC03154 |
| – | 3.48e5 | 2.93e5 | CG11085 | DRSC19374 |
| – | 1.80e5 | 2.01e5 | CG15115 | DRSC06537 |
